# Laboratory results: patent publication US20130165396A1, “Apple Skin Extracts for Treating Cardiovascular Disease” (NATIONAL RESEARCH COUNCIL OF CANADA, priority 2010, published 2013)
# Some entries share one result that the patent states for a list of compounds. At least one structure is not confirmed: it was looked up by name or label, or the drawing left a doubt.
# Test system: LDL isolated from human plasma
# Assay: In vitro LDL oxidation inhibition, statements covering both induction systems or both product types
# Format: biochemical
# Settings: 5-50 mg L^−1, p<0.05
# Protocol: Two oxidation induction methods were used: copper sulfate and 2,2′-azobis(2-methylpropionamidine)dihydrochloride (AAPH). For both induction systems, 100 μg/mL of final LDL protein concentration was used. LDL was oxidized at the presence of 10 μM final concentration of Cu^2+and 5 mM final concentration of AAPH separately at 37° C. for 4 h in the dark. […] Oxidation was terminated by adding a 1:1 mixture of 1 mM solution of ethylenediaminetetraacetic acid (EDTA) and 1 mM solution of butylated hydroxytoluene (BHT).
# Two main constituents of TAE and oleanolic acid, which is an isomer of ursolic acid, were also used to investigate the concentration-responsiveness. […]
# TBARS were measured according to the method of Xu et al., J. Food Sci., 2007, 72: S522-S527 with slight modifications. […] After cooling to room temperature tubes were centrifuged at 1500 g for 15 min and the fluorescence was measured using the FLUOstar OPTIMA plate reader (BMG Labtech Inc. Canada). […] TBARS activity was expressed as the percent inhibition (Equation 1) of LDL oxidation with comparison to the positive control, where F is fluorescence:
# The formation of hydroperoxides was measured by the lipid compatible formulation of the Peroxoquant™ quantitative peroxide assay kit. […] Hydroperoxides were measured following the manufacturer's instructions. […]
smiles,measurement,value
O=c1c(O[C@@H]2O[C@H](CO)[C@H](O)[C@H](O)[C@H]2O)c(-c2ccc(O)c(O)c2)oc2cc(O)cc(O)c12 [Quercetin-3-O-galactoside],Inhibition of LDL oxidation,more than 80%
